Record: PubChem BioAssay AID652272 (Drosophila RNAi Screening Center, 2013)

- Purpose: 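Genome-wide knock-down search for components of Hedgehog signalling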 (primary screen)
- System: Drosophila clone 8 (Cl8) cells
- Reagents: long dsRNA against Drosophila genes
- Read-out: 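Firefly light from a Hedgehog-responsive ptc promoter reporter and Renilla reference light, both read on a plate reader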
- Reading the numbers: firefly Hh reporter signal: higher = more ptc reporter light; Renilla reference signal: higher = more Renilla control light
- Active means: 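Hit when the z-score averaged over two replicates is under -2 or over +3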
- Meaning of the calls: active = hit: reporter lowered or raised; inactive = not a hit
In all, the deposit lists about 21,000 reagents; this is an unselected part of those with a known target gene and a result. In the full data, 503 (2.4%) are marked active. 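Raw plate light values, not normalised; calls rest on replicate z-scores that were not deposited; hits include reporter decreases as well as increases.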 The numbers tell different reagents against one gene apart. Names joined by + are all predicted targets of the reagent. Not given: the amount of reagent, the time to read-out.

| gene | dsRNA no. | firefly Hh reporter signal, replicate 1 | firefly Hh reporter signal, replicate 2 | Renilla reference signal, replicate 1 | Renilla reference signal, replicate 2 | activity call |
| --- | --- | --- | --- | --- | --- | --- |
| azot | 1 | 85478 | 46115 | 2128 | 4181 | inactive |
| CG15517 | 1 | 1.02e5 | 1.84e5 | 4072 | 5417 | inactive |
| CG14561 | 1 | 1.00e5 | 1.08e5 | 3771 | 3073 | inactive |
| fand | 1 | 73424 | 41418 | 4148 | 1936 | inactive |
| FMRFa | 1 | 96132 | 52098 | 2256 | 4579 | inactive |
| CG5335 | 1 | 99395 | 63492 | 3792 | 2758 | inactive |
| tinc | 1 | 4.65e5 | 87121 | 26684 | 2208 | inactive |
| tinc | 2 | 4.63e5 | 89196 | 25640 | 2317 | inactive |
| tinc | 3 | 3.81e5 | 71901 | 20938 | 2090 | inactive |
| tinc | 4 | 5.14e5 | 87782 | 33435 | 1872 | inactive |
| Tret1-1 | 1 | 83932 | 47328 | 1908 | 3808 | inactive |
| Tret1-1 | 2 | 61899 | 40865 | 1648 | 3568 | inactive |
| ND2 (retired record) | 1 | 1.15e5 | 3.43e5 | 2156 | 14441 | inactive |
| cag | 1 | 95459 | 54761 | 1821 | 1509 | inactive |
| Magi | 1 | 1.00e5 | 78339 | 3757 | 2917 | inactive |
| Magi | 2 | 1.26e5 | 49980 | 3088 | 1612 | inactive |
| CG7988 | 1 | 6.83e5 | 92853 | 32101 | 2285 | inactive |
| dock | 1 | 74997 | 73594 | 2672 | 2788 | inactive |
| CG3420 | 1 | 1.17e5 | 79212 | 3046 | 4005 | inactive |
| und | 1 | 1.06e5 | 76882 | 4647 | 2832 | inactive |
| mof | 1 | 74492 | 1.60e5 | 1946 | 3122 | active |
| cid | 1 | 1.20e5 | 3.50e5 | 3049 | 12092 | inactive |
| cid | 2 | 81501 | 78692 | 1842 | 5268 | inactive |
| reb | 1 | 82626 | 61945 | 2068 | 4699 | inactive |
| Doc1 | 1 | 45767 | 95556 | 3584 | 6828 | inactive |
| sov | 1 | 73200 | 86122 | 2333 | 1632 | inactive |
| Acp53C14c | 1 | 76562 | 1.83e5 | 2387 | 7077 | inactive |
| CG42594 | 1 | 22011 | 22231 | 939 | 1257 | inactive |
| CG42594 | 2 | 77980 | 1.70e5 | 2658 | 6850 | inactive |
| Or33b | 1 | 1.03e5 | 43308 | 1905 | 3984 | inactive |
| CG4476 | 1 | 28716 | 55866 | 2594 | 4258 | inactive |
| Obp19c | 1 | 52044 | 1.40e5 | 1109 | 8076 | inactive |
| Strica | 1 | 1.03e5 | 78993 | 1700 | 7085 | inactive |
| OS9 + Hf | 1 | 82977 | 52035 | 3076 | 2403 | inactive |
| CG30001 | 1 | 1.20e5 | 2.54e5 | 3110 | 10848 | inactive |
| CG11076 | 1 | 59077 | 1.35e5 | 1625 | 6013 | inactive |
| CG15446 | 1 | 1.05e5 | 2.01e5 | 4534 | 9127 | inactive |
| Dp | 1 | 74784 | 64242 | 4935 | 3848 | inactive |
| CG8834 | 1 | 1.02e5 | 76583 | 2208 | 4900 | inactive |
| CG14357 | 1 | 70995 | 85344 | 1258 | 1456 | inactive |
| CG30271 | 1 | 94089 | 57977 | 1587 | 5418 | inactive |
| CG13999 | 1 | 1.23e5 | 54579 | 3165 | 5609 | inactive |
| tay | 1 | 98397 | 61590 | 2914 | 1418 | inactive |
| CG42850 (retired record) | 1 | 5.18e5 | 89634 | 3513 | 3513 | inactive |
| CG43102 | 1 | 54045 | 2.79e5 | 10784 | 6560 | inactive |
| CG43102 | 2 | 8.40e5 | 1.93e5 | 44144 | 5541 | inactive |
| CG43102 | 3 | 6.30e5 | 1.10e5 | 28805 | 3372 | inactive |
| Ask1 | 1 | 9.12e5 | 2.47e5 | 47778 | 6769 | inactive |
| CG34028 | 1 | 5.70e5 | 2.12e5 | 31811 | 4679 | inactive |
| CG14610 + asRNA:CR42738 | 1 | 60692 | 98099 | 2493 | 2916 | inactive |
| fs(2)ltoPP43 | 1 | 67280 | 44832 | 1601 | 4468 | inactive |
| CG6805 | 1 | 1.74e5 | 1.02e5 | 7600 | 4490 | inactive |
| l(2)k09022 | 1 | 73688 | 68291 | 3864 | 3733 | inactive |
| Dgat2 | 1 | 1.16e5 | 98688 | 4770 | 3713 | inactive |
| FASN3 | 1 | 62546 | 1.97e5 | 1372 | 7941 | inactive |
| Naa35 | 1 | 1.09e5 | 38849 | 4131 | 1915 | inactive |
| CG11980 | 1 | 81516 | 95897 | 3802 | 4077 | inactive |
| fzr2 | 1 | 1.01e5 | 92470 | 4071 | 3809 | inactive |
| CG31975 + ovm | 1 | 1.10e5 | 78260 | 2923 | 2381 | inactive |
| mu2 | 1 | 1.59e5 | 1.26e5 | 7465 | 5637 | inactive |
| CG1571 | 1 | 89131 | 2.23e5 | 3681 | 8573 | inactive |
| Rox8 | 1 | 5.38e5 | 69656 | 26165 | 2145 | inactive |
| gkt + CR31953 | 1 | 89571 | 73736 | 3837 | 3221 | inactive |
| CG14854 | 1 | 90485 | 99255 | 3305 | 2532 | inactive |
| CG11816 | 1 | 63415 | 1.49e5 | 1465 | 5573 | inactive |
| shi | 1 | 79958 | 57848 | 2096 | 1346 | inactive |
| fd19B | 1 | 1.65e5 | 4.34e5 | 6745 | 14997 | inactive |
| Jhbp13 | 1 | 1.71e5 | 59100 | 4139 | 4369 | inactive |
| Klp61F | 1 | 61512 | 22491 | 1872 | 1912 | inactive |
| Raf | 1 | 50519 | 1.93e5 | 1483 | 7083 | inactive |
| CG14416 | 1 | 93328 | 2.19e5 | 3429 | 9168 | inactive |
| CG12003 | 1 | 1.42e5 | 57890 | 4873 | 4411 | inactive |
| CG11360 | 1 | 4.99e5 | 1.95e5 | 26149 | 4899 | inactive |
| CG11360 | 2 | 78008 | 1.72e5 | 1896 | 6925 | inactive |
